According to publication doi:10.1101/2020.09.16.299644:
Read-outs that look alike come from different tables or passages of the source. No constants are given. Whether binding was seen depends on the method and setting. Some entries that bind do so weakly or less than the wild type. Each block holds one molecule with its values, some of them ahead of it.

Sequences of proteins named here, by UniProt entry; tags and fusion partners are left off.
UniProt P35194: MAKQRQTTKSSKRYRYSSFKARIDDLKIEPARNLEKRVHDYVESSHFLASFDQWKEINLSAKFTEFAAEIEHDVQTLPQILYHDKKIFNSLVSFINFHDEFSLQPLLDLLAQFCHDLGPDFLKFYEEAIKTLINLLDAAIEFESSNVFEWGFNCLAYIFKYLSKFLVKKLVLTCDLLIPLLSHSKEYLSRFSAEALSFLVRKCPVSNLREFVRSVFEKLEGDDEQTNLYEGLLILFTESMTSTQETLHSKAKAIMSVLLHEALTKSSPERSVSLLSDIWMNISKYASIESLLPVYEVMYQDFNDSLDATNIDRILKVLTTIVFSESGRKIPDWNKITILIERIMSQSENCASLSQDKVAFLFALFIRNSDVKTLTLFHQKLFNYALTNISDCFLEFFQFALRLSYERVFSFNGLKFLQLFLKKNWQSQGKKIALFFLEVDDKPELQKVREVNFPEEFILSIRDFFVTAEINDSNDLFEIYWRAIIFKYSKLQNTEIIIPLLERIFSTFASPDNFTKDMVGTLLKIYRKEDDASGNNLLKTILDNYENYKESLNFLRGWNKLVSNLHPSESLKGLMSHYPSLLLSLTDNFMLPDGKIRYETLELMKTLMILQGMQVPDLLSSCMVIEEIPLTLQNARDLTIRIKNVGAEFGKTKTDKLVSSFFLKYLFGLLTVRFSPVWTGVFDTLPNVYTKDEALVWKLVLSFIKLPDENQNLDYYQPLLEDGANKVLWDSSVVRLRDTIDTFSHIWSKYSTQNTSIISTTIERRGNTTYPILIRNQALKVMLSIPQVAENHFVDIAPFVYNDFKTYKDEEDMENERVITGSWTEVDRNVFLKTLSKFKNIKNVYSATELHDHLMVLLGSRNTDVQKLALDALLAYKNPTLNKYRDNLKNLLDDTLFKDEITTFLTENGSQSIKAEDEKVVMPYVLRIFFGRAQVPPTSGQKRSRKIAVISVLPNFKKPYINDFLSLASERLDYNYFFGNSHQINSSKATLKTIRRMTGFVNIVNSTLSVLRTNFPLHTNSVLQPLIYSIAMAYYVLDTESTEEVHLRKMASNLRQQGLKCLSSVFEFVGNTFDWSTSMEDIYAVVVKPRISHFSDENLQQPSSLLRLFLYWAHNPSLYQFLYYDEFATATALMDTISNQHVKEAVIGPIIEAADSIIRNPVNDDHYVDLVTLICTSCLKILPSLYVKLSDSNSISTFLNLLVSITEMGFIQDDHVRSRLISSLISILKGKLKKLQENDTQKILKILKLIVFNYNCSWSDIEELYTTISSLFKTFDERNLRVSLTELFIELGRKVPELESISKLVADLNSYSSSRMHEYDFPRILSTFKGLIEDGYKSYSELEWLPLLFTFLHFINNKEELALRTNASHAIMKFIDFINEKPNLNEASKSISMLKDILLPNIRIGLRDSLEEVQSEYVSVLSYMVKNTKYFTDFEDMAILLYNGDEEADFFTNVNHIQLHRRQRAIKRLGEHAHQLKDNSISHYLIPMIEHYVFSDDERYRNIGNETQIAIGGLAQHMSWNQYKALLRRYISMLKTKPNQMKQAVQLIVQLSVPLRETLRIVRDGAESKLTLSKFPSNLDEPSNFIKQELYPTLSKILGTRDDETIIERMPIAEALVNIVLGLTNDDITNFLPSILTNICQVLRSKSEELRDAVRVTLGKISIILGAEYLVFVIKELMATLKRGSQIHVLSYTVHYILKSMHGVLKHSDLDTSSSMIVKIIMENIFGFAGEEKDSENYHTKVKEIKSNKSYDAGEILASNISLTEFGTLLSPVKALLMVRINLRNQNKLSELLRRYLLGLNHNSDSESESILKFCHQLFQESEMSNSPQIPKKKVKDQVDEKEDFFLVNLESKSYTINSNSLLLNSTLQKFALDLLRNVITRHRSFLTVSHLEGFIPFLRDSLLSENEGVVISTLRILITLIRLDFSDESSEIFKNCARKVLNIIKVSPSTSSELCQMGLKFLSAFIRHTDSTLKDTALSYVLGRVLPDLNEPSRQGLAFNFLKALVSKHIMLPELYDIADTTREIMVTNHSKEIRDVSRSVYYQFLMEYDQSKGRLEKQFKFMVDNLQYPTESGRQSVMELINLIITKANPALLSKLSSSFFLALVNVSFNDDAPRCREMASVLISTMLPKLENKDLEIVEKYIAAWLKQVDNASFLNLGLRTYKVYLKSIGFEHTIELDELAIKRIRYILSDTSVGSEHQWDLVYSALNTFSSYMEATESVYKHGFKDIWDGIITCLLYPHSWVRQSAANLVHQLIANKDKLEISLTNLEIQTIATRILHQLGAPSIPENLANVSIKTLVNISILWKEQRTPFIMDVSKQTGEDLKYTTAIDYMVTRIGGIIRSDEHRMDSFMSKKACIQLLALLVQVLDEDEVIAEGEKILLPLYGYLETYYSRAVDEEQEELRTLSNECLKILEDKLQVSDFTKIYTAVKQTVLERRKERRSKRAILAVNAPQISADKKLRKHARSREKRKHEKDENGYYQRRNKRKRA
UniProt P25586: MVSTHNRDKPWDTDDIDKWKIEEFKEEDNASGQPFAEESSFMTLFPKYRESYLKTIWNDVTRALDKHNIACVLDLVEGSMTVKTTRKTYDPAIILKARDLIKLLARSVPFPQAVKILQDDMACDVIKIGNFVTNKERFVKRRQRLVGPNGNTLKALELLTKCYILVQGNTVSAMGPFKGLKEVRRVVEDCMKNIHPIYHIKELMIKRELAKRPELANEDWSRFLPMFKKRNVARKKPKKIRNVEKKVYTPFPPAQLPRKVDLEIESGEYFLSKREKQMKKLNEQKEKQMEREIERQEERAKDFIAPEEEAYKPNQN
UniProt P05756: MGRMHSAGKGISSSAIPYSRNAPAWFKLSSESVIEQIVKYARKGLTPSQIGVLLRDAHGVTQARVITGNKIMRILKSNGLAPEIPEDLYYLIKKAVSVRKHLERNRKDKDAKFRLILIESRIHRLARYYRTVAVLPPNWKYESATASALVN
UniProt P40055: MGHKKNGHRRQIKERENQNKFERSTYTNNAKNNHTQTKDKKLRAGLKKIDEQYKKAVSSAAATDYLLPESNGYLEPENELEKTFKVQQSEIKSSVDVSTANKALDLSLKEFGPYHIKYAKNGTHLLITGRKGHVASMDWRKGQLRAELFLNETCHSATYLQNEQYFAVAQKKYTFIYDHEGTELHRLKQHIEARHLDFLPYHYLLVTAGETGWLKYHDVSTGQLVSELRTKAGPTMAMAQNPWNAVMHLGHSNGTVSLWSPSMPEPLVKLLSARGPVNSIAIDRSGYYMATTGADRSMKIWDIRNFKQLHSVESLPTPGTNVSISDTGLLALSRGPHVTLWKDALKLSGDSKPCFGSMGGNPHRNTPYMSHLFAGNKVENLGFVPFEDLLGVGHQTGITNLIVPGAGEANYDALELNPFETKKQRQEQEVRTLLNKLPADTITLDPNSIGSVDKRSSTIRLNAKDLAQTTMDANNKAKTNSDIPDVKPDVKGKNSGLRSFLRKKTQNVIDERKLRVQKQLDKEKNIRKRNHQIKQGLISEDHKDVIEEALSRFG

Tests used:
Experiment in all cases: cryo-EM structure
[1] = biological target: T1, Rrp7 (S. cerevisiae (endogenous in strain BY4741)) (UniProt P25368)
T1 sequence: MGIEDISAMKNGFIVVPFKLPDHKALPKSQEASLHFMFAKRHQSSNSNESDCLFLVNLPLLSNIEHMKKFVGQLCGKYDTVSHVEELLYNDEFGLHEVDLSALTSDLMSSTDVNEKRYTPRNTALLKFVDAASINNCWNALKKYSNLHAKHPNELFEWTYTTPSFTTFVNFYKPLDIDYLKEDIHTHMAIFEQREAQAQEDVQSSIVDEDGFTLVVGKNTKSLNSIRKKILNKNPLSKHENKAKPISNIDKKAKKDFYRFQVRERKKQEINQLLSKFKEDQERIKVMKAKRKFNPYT

[2] = biological target: T2, Utp22 (S. cerevisiae (endogenous in strain BY4741)) (UniProt P53254)
T2 sequence: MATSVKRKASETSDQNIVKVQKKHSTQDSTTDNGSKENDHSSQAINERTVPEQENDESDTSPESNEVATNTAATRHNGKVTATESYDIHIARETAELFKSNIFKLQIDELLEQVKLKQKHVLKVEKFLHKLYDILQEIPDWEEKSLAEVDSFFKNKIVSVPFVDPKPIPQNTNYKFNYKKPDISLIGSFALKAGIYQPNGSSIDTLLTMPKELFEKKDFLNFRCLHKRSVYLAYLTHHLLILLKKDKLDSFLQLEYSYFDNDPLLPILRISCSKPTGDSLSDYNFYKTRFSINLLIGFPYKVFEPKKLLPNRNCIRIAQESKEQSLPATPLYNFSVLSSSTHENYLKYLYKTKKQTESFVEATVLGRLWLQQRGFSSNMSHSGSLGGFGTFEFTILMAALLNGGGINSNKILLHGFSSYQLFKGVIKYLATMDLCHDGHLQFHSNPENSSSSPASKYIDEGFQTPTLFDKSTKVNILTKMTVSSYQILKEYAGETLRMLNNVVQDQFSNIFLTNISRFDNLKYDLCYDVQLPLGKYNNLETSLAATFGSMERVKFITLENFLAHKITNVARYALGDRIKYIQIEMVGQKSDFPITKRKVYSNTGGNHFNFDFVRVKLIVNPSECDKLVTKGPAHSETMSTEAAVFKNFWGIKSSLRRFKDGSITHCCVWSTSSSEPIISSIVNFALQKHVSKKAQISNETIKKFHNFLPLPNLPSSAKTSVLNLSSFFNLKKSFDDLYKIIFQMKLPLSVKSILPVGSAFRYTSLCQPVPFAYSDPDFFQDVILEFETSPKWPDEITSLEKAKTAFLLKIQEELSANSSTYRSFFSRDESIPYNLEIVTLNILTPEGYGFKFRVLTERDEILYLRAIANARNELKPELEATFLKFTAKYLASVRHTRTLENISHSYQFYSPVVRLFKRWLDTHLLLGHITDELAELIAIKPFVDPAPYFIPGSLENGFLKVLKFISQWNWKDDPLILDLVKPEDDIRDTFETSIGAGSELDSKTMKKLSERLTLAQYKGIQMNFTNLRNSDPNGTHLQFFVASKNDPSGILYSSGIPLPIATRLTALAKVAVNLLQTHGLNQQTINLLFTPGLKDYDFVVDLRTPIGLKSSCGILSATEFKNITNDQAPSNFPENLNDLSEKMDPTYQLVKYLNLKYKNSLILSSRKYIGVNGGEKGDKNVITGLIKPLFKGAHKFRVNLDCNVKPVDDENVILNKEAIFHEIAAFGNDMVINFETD

[3] = biological target: T3, Utp4 (S. cerevisiae (endogenous in strain BY4741)) (UniProt Q06679)
T3 sequence: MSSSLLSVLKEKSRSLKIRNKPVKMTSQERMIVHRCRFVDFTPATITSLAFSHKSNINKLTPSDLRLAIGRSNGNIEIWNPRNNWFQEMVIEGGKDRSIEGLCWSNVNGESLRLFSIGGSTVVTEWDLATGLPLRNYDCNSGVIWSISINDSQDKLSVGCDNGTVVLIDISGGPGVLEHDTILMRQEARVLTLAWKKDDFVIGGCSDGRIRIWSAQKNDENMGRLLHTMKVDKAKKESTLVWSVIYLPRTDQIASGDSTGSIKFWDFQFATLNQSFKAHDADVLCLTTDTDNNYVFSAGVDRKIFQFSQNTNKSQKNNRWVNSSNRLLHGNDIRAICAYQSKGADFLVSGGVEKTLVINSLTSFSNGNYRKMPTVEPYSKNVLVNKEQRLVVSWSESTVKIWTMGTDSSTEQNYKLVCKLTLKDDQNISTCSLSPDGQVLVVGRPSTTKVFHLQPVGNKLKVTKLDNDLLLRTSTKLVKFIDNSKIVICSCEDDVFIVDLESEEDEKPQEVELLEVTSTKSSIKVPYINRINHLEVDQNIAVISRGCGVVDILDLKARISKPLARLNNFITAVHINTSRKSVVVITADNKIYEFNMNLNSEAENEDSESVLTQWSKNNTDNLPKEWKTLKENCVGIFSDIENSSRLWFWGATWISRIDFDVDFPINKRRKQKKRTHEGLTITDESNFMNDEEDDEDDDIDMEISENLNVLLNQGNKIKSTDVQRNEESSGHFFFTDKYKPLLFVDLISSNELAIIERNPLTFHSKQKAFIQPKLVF

[4] = biological target: Utp20 (S. cerevisiae (endogenous in strain BY4741)) (UniProt P35194)
[5] = biological target: Krr1 (S. cerevisiae (endogenous in strain BY4741)) (UniProt P25586)
[6] = biological target: Rps13 (S. cerevisiae (endogenous in strain BY4741)) (UniProt P05756)
[7] = biological target: T2, Utp22 (S. cerevisiae (endogenous in strain BY4741)); remark: listed apart in the source

B1: Utp5 (protein, UniProt Q04177 1-643)
chain: MDSPVLQSAYDPSGQYLCYVTVALDKQRVGVQPTQRATSSGVDTVWNENFLYLEDSKLKVTCLKWVNLASSDTVAIILGMNNGEIWLYSVLANEVTYKFTTGNSYEIKDIDLMGNQLWCIDSSDAFYQFDLLQFKLLQHFRINNCVQLNKLTIVPAGDSVAQLLVASHSISLIDIEEKKVVMTFPGHVSPVSTLQVITNEFFISGAEGDRFLNVYDIHSGMTKCVLVAESDIKELSHSGQADSIAVTTEDGSLEIFVDPLVSSSTKKRGNKSKKSSKKIQIVSKDGRKVPIYNAFINKDLLNVSWLQNATMPYFKNLQWREIPNEYTVEISLNWNNKNKSADRDLHGKDLASATNYVEGNARVTSGDNFKHVDDAIKSWERELTSLEQEQAKPPQANELLTETFGDKLESSTVARISGKKTNLKGSNLKTATTTGTVTVILSQALQSNDHSLLETVLNNRDERVIRDTIFRLKPALAVILLERLAERIARQTHRQGPLNVWVKWCLIIHGGYLVSIPNLMSTLSSLHSTLKRRSDLLPRLLALDARLDCTINKFKTLNYEAGDIHSSEPVVEEDEDDVEYNEELDDAGLIEDGEESYGSEEEEEGDSDNEEEQKHTSSKQDGRLETEQSDGEEEAGYSDVEME
- binding [3]: binds

B2: Utp14 (protein, UniProt Q04500 1-899)
chain: MAKKKSKSRSKSSRRVLDALQLAEREINGEFDNSSDNDKRHDARRNGTVVNLLKRSKGDTNSDEDDIDSESFEDEELNSDEALGSDDDYDILNSKFSQTIRDKKENANYQEEEDEGGYTSIDEEDLMPLSQVWDMDEKTAQSNGNDDEDASPQLKLQDTDISSESSSSEESESESEDDEEEEDPFDEISEDEEDIELNTITSKLIDETKSKAPKRLDTYGSGEANEYVLPSANAASGASGKLSLTDMMNVIDDRQVIENANLLKGKSSTYEVPLPQRIQQRHDRKAAYEISRQEVSKWNDIVQQNRRADHLIFPLNKPTEHNHASAFTRTQDVPQTELQEKVDQVLQESNLANPEKDSKFEELSTAKMTPEEMRKRTTEMRLMRELMFREERKARRLKKIKSKTYRKIKKKELMKNRELAAVSSDEDNEDHDIARAKERMTLKHKTNSKWAKDMIKHGMTNDAETREEMEEMLRQGERLKAKMLDRNSDDEEDGRVQTLSDVENEEKENIDSEALKSKLGKTGVMNMAFMKNGEAREREANKETLRQLRAVENGDDIKLFESDEEETNGENIQINKGRRIYTPGSLESNKDMNELNDHTRKENKVDESRSLENRLRAKNSGQSKNARTNAEGAIIVEEESDGEPLQDGQNNQQDEEAKDVNPWLANESDEEHTVKKQSSKVNVIDKDSSKNVKAMNKMEKAELKQKKKKKGKSNDDEDLLLTADDSTRLKIVDPYGGSDDEQGDNVFMFKQQDVIAEAFAGDDVVAEFQEEKKRVIDDEDDKEVDTTLPGWGEWAGAGSKPKNKKRKFIKKVKGVVNKDKRRDKNLQNVIINEKVNKKNLKYQSSAVPFPFENREQYERSLRMPIGQEWTSRASHQELIKPRIMTKPGQVIDPLKAPFK
- binding [4]: binds

B3: Faf1 (protein, UniProt P40546 1-346)
chain: MTLDDDDYIKQMELQRKAFESQFGSLESMGFEDKTKNIRTEVDTRDSSGDEIDNSDHGSDFKDGTIESSNSSDEDSGNETAEENNQDSKPKTQPKVIRFNGPSDVYVPPSKKTQKLLRSGKTLTQINKKLESTEAKEEKEDETLEAENLQNDLELQQFLRESHLLSAFNNGGSGSTNSGVSLTLQSMGGGNDDGIVYQDDQVIGKARSRTLEMRLNRLSRVNGHQDKINKLEKVPMHIRRGMIDKHVKRIKKYEQEAAEGGIVLSKVKKGQFRKIESTYKKDIERRIGGSIKARDKEKATKRERGLKISSVGRSTRNGLIVSKRDIARISGGERSGKFNGKKKSRR
- binding [5]: binds

Now from value to molecule:

- binding [1]: binds
- binding [2]: binds
Molecule: Utp7 (from UniProt P40055 1-554)

- binding [6]: binds
- binding [7]: binds
B4: Rrp7 (protein, UniProt P25368 1-297)
chain: MGIEDISAMKNGFIVVPFKLPDHKALPKSQEASLHFMFAKRHQSSNSNESDCLFLVNLPLLSNIEHMKKFVGQLCGKYDTVSHVEELLYNDEFGLHEVDLSALTSDLMSSTDVNEKRYTPRNTALLKFVDAASINNCWNALKKYSNLHAKHPNELFEWTYTTPSFTTFVNFYKPLDIDYLKEDIHTHMAIFEQREAQAQEDVQSSIVDEDGFTLVVGKNTKSLNSIRKKILNKNPLSKHENKAKPISNIDKKAKKDFYRFQVRERKKQEINQLLSKFKEDQERIKVMKAKRKFNPYT
